The other results are listed elsewhere or left out.
Columns and labels:
Test in all cases: log2 fold change, soluble protein after heating vs DMSO (PISA); higher = thermal stabilisation; K562 cells, 10 uM, 30 min; active = over 0.2 and 3.5 SD of the protein, either way, in both replicates (recomputed)
[1] = compound: CS(=O)(=O)c1ccc(-c2cnc(N)c(C(=O)Nc3ccccc3)n2)cc1
Summary of the method: (§1)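 Thermal stability values are relative to control samples and come from duplicates. They are expressed as log2 fold changes. For measurement, K562 cells (2×10^6 cells/mL) received 10 μM compound for 30 min, and aliquots were heated for 3 min over 48°C-58°C, pooled, and extracted at 4°C in PBS with 0.5% NP-40. Soluble protein, the supernatant after 21,000xg for 90 min, was quantified by TMTpro 16plex LC-MS/MS with equalised channel sums.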

Amino acid sequences for entries named in this document (tags omitted). A change or cut given only in a name is not applied to a line headed by its entry.
UniProt Q13409, whole entry, looked up: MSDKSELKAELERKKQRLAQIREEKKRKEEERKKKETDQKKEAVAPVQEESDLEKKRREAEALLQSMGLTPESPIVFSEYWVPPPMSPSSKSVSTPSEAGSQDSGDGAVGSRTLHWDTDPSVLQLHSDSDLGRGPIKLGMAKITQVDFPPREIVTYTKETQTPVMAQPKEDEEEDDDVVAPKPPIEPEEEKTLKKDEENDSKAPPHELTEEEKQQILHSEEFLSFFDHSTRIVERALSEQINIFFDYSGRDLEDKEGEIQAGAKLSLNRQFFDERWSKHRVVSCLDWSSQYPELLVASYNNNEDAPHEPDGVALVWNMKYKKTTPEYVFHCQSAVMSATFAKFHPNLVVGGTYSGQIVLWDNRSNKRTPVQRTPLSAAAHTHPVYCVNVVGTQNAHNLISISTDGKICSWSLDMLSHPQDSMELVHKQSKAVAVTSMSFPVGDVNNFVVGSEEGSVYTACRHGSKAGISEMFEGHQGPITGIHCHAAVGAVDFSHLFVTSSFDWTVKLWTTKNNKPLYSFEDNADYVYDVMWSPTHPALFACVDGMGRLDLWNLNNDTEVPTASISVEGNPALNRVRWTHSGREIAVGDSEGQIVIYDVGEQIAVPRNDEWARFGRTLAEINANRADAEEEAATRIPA
UniProt Q96KC8: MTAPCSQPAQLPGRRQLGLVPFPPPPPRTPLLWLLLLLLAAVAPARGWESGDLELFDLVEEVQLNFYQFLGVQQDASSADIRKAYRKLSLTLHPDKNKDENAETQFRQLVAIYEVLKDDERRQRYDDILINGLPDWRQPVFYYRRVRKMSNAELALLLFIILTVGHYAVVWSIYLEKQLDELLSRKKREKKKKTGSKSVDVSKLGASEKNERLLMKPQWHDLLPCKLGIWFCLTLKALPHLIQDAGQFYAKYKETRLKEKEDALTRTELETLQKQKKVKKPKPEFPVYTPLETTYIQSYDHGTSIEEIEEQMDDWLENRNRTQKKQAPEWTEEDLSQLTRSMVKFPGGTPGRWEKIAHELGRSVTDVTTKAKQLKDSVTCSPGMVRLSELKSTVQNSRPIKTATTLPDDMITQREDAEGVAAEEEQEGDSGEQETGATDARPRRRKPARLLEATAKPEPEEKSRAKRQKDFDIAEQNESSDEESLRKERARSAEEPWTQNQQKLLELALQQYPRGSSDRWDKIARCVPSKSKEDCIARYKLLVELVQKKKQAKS
UniProt Q6P3W2: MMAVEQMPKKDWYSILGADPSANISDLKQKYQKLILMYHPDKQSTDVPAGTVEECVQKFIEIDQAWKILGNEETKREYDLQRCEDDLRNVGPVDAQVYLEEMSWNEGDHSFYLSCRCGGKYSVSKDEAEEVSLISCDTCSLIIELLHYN
UniProt O43237, whole entry, looked up: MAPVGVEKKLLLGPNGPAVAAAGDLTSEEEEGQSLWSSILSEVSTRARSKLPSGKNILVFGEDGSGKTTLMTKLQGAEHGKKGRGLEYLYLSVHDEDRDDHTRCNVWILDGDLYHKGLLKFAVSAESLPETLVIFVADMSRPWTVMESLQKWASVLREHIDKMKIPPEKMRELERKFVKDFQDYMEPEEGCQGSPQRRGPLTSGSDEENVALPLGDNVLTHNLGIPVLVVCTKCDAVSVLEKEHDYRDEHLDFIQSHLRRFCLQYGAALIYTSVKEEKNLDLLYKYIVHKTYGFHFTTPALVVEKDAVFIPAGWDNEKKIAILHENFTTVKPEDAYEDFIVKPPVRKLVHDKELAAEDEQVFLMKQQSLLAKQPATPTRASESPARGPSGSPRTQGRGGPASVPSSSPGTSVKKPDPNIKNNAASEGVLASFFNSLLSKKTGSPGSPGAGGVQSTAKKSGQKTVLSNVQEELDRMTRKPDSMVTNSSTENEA
UniProt Q5SXM8: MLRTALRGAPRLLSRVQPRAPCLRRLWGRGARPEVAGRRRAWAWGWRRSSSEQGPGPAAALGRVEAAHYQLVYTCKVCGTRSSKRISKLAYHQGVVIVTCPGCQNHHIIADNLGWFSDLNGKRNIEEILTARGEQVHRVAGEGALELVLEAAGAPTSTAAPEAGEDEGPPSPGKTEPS
UniProt Q99956: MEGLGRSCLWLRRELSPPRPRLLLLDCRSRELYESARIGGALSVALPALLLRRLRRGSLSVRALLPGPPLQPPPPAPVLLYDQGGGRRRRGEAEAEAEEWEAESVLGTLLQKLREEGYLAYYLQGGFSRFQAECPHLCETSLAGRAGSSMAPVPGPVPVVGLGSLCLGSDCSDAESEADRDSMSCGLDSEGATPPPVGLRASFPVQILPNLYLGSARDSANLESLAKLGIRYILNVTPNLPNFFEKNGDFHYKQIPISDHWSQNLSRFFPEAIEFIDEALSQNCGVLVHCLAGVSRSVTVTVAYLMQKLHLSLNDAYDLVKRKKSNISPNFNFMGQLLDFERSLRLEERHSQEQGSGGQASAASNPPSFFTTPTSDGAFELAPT
UniProt Q99704: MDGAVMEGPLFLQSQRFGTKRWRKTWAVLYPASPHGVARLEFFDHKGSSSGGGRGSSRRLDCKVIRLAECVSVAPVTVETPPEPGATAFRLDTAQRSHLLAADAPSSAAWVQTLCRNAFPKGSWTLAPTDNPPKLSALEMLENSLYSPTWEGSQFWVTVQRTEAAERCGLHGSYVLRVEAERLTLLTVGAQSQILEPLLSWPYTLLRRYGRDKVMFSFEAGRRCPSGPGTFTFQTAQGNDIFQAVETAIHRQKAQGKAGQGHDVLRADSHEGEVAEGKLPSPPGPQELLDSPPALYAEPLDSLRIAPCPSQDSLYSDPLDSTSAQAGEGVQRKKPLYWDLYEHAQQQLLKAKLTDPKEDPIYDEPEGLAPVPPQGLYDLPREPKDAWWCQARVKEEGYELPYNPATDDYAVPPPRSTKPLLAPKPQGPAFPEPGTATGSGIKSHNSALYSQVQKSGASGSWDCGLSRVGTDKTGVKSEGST
UniProt Q3B7T1: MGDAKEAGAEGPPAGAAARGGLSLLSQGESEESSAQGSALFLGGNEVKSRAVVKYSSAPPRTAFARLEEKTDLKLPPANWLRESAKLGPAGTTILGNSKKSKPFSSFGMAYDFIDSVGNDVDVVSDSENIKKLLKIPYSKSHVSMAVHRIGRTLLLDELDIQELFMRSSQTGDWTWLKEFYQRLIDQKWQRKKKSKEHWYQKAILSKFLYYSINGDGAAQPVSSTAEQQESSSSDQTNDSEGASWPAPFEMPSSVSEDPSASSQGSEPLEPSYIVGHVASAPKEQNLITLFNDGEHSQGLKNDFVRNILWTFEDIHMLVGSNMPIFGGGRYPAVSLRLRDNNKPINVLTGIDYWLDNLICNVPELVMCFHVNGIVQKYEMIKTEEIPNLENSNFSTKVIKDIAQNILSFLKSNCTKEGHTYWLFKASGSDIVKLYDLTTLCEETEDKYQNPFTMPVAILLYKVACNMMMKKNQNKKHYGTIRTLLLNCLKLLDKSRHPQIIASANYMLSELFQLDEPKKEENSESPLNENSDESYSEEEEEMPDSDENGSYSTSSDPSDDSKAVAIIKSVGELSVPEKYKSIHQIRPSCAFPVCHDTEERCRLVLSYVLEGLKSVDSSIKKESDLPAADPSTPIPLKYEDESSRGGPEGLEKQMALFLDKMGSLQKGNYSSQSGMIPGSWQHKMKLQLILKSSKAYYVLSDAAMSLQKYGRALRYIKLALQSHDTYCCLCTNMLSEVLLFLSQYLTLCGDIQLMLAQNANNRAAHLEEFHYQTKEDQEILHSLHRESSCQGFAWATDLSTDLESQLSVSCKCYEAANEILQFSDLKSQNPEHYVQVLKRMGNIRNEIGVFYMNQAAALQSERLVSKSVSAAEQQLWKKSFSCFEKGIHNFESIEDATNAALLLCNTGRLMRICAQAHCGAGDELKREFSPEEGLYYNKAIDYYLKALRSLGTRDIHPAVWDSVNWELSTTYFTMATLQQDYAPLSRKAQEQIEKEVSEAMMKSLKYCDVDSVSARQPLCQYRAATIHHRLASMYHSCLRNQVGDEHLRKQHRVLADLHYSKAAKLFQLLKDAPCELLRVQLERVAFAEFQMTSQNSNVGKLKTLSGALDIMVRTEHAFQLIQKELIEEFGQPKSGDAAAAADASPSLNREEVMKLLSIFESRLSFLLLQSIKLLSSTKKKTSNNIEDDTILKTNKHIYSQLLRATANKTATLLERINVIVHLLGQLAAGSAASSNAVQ
UniProt Q96N67: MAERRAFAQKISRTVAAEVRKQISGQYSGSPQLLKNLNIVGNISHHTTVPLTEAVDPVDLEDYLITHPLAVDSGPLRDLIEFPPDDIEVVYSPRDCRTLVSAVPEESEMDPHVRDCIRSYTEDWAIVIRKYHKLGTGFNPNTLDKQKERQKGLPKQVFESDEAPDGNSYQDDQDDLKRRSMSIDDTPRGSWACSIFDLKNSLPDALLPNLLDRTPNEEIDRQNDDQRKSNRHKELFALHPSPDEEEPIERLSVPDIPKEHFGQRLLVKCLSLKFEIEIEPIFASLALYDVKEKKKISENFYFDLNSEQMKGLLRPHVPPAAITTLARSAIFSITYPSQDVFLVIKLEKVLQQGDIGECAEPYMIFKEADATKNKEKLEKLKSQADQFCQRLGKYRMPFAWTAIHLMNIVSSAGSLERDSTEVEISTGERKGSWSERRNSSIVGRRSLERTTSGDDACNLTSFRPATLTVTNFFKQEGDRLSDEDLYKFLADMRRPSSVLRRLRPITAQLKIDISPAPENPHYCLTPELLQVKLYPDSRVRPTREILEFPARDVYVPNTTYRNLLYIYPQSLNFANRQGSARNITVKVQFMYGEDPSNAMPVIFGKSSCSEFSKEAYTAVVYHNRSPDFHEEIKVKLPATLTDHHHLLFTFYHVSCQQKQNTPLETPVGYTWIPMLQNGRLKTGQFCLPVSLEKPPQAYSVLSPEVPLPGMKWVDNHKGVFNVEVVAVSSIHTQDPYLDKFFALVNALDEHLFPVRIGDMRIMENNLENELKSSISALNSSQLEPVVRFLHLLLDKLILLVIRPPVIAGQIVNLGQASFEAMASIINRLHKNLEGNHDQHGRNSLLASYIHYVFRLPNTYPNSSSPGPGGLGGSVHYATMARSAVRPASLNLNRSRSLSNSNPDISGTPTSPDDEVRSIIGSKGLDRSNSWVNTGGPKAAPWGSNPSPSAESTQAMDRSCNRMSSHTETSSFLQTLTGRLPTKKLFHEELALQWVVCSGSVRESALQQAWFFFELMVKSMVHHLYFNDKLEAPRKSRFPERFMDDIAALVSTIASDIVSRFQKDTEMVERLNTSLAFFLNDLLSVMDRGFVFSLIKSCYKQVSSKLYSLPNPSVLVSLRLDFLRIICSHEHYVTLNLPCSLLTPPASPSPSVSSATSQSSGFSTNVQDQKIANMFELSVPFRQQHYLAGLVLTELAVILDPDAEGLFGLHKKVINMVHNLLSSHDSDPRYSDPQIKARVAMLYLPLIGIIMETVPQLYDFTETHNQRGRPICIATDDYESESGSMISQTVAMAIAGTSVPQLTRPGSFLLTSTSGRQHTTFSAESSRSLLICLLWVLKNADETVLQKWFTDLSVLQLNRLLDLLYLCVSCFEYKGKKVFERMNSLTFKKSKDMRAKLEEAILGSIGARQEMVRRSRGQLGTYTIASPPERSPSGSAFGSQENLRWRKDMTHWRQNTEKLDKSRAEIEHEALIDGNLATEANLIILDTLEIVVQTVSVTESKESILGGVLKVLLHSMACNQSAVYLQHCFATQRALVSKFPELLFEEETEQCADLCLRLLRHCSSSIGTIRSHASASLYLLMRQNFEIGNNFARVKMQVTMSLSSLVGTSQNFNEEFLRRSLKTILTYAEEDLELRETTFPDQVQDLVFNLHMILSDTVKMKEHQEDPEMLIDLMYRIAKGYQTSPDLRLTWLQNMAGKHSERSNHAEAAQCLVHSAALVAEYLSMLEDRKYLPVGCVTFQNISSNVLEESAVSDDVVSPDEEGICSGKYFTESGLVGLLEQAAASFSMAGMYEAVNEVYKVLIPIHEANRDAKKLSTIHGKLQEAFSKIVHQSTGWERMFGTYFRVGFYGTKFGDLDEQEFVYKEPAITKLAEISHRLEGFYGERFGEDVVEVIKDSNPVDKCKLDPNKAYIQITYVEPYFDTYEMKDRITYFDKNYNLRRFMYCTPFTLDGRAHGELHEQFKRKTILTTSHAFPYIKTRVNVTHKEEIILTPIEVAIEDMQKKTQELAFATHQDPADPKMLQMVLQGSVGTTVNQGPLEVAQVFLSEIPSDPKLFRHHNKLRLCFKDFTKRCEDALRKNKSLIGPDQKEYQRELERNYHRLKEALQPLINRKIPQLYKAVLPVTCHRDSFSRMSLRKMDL
UniProt Q96DC8: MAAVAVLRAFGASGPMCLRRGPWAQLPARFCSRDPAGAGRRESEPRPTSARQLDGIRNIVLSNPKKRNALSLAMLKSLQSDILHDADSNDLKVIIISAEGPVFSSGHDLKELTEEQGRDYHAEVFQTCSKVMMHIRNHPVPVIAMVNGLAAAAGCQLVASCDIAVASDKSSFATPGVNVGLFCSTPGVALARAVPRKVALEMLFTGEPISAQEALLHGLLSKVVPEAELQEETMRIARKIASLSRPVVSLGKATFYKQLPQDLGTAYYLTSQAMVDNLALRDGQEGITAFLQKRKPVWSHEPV

crizotinib = compound: C[C@@H](Oc1cc(-c2cnn(C3CCNCC3)c2)cnc1N)c1c(Cl)ccc(F)c1Cl [crizotinib]
Summary of the method: as §1

[2] = compound: C[C@@H]1COCCN1C2=NC(=NC(=C2)C3(CC3)S(=O)(=O)C)C4=C5C=CNC5=CC=C4
Summary of the method: as §1

[3] = compound: C[C@H](C1=CC=C(C=C1)C(=O)NC2=C3C=CNC3=NC=C2)N
Summary of the method: as §1

doramapimod = compound: Cc1ccc(-n2nc(C(C)(C)C)cc2NC(=O)Nc2ccc(OCCN3CCOCC3)c3ccccc23)cc1 [doramapimod]
Summary of the method: as §1

ispinesib = compound: Cc1ccc(C(=O)N(CCCN)[C@@H](c2nc3cc(Cl)ccc3c(=O)n2Cc2ccccc2)C(C)C)cc1 [ispinesib]
Summary of the method: as §1

bafetinib = compound: Cc1ccc(NC(=O)c2ccc(CN3CC[C@H](N(C)C)C3)c(C(F)(F)F)c2)cc1Nc1nccc(-c2cncnc2)n1 [bafetinib]
Summary of the method: as §1

[4] = compound: Cn1cc(-c2ccc3c(c2)CCN3C(=O)Cc2cccc(C(F)(F)F)c2)c2c(N)ncnc21
Summary of the method: as §1

[5] = compound: Cn1cc(-c2ccc3nnc(C(F)(F)c4ccc5ncccc5c4)n3n2)cn1
Summary of the method: as §1

tipifarnib = compound: Cn1cncc1[C@@](N)(c1ccc(Cl)cc1)c1ccc2c(c1)c(-c1cccc(Cl)c1)cc(=O)n2C [tipifarnib]
Summary of the method: as §1

mubritinib = compound: FC(F)(F)c1ccc(/C=C/c2nc(COc3ccc(CCCCn4ccnn4)cc3)co2)cc1 [mubritinib]
Summary of the method: as §1

gandotinib = compound: Cc1cc(Nc2cc(CN3CCOCC3)c3nc(C)c(Cc4ccc(Cl)cc4F)n3n2)n[nH]1 [gandotinib]
Summary of the method: as §1

[6] = compound: Cc1cc(SCc2sc(-c3ccc(C(F)(F)F)cc3)nc2C)ccc1OCC(=O)O
Summary of the method: as §1

[7] = compound: Cc1cccc(CC(=O)N2CCc3c2ccc(-c2cn(C)c4ncnc(N)c24)c3F)n1
Summary of the method: as §1

nilotinib = compound: Cc1cn(-c2cc(NC(=O)c3ccc(C)c(Nc4nccc(-c5cccnc5)n4)c3)cc(C(F)(F)F)c2)cn1 [nilotinib]
Summary of the method: as §1

[8] = compound: Cc1nc(Nc2n[nH]c3c2CN(C(=O)N[C@H](CN(C)C)c2ccccc2)C3(C)C)c2sccc2n1
Summary of the method: as §1

dasatinib = compound: Cc1nc(Nc2ncc(C(=O)Nc3c(C)cccc3Cl)s2)cc(N2CCN(CCO)CC2)n1 [dasatinib]
Summary of the method: as §1

[9] = compound: Cc1ncc(-c2ccnc(Nc3ccc(S(C)(=O)=O)cc3)n2)n1C(C)C
Summary of the method: as §1

duvelisib = compound: C[C@H](Nc1ncnc2nc[nH]c12)c1cc2cccc(Cl)c2c(=O)n1-c1ccccc1 [duvelisib]
Summary of the method: as §1

tozasertib = compound: Cc1cc(Nc2cc(N3CCN(C)CC3)nc(Sc3ccc(NC(=O)C4CC4)cc3)n2)n[nH]1 [tozasertib]
Summary of the method: as §1

Target | log2 fold change [1] | log2 fold change (crizotinib) | log2 fold change [2] | log2 fold change [3] | log2 fold change (doramapimod) | log2 fold change (ispinesib) | log2 fold change (bafetinib) | log2 fold change [4] | log2 fold change [5] | log2 fold change (tipifarnib) | log2 fold change (mubritinib) | log2 fold change (gandotinib) | log2 fold change [6] | log2 fold change [7] | log2 fold change (nilotinib) | log2 fold change [8] | log2 fold change (dasatinib) | log2 fold change [9] | log2 fold change (duvelisib) | log2 fold change (tozasertib)
DYNC1I2 isoform 2 (UniProt Q13409) | inactive: 0.185 | inactive: -0.05 | inactive: -0.02 | active: -0.647 | inactive: -0.079 | inactive: 0.06 | inactive: -0.038 | inactive: -0.311 | inactive: -0.067 | inactive: 0.177 | inactive: 0.067 |  |  |  |  |  |  |  |  | 
DNAJC1 (UniProt Q96KC8) | inactive: -0.021 | inactive: -0.148 | inactive: 0.009 | inactive: 0.023 | inactive: 0.002 | active: -0.356 | inactive: -0.185 | inactive: 0.028 | inactive: 0.047 | inactive: 0.039 | inactive: 0.041 | inactive: -0.094 | inactive: 0.009 | inactive: -0.026 | inactive: -0.035 | inactive: 0.016 | inactive: -0.064 | inactive: 0.002 |  | 
DNAJC24 (UniProt Q6P3W2) | inactive: -0.054 | inactive: 0.055 | inactive: -0.031 | inactive: -0.004 | inactive: 0.038 | inactive: 0.01 | inactive: -0.079 | inactive: -0.1 | inactive: -0.201 | inactive: 0.084 | inactive: 0.06 |  | inactive: -0.024 |  | inactive: 0.019 | inactive: -0.054 | inactive: 0.053 | inactive: 0.016 |  | 
DNM1L isoform 2 (UniProt O00429) | inactive: -0.043 | inactive: -0.081 |  | inactive: 0.133 | inactive: 0.058 | inactive: 0.056 | inactive: 0.021 | inactive: 0.055 | inactive: -0.106 | inactive: 0.091 | inactive: -0.084 | inactive: 0.118 | inactive: 0.181 | inactive: -0.012 | inactive: -0.039 | inactive: -0.071 | inactive: -0.117 | inactive: -0.102 | inactive: -0.364 | inactive: -0.021
DNPEP (UniProt C9JBE1) | inactive: 0.01 | inactive: 0.08 | inactive: 0.069 |  | inactive: 0.031 |  | inactive: -0.082 |  |  | inactive: 0.075 | inactive: 0.127 | inactive: 0 | inactive: -0.162 | inactive: -0.378 |  |  | inactive: 0.089 |  | inactive: 0.09 | inactive: -0.012
DYNLT1 (UniProt P63172) | inactive: -0.054 | inactive: 0.006 |  | inactive: -0.074 | inactive: -0.078 | inactive: 0.124 | inactive: 0.011 | inactive: 0.152 | inactive: 0.004 | inactive: -0.058 | inactive: 0.023 | inactive: -0.016 | inactive: 0.063 | inactive: 0.145 | inactive: 0.034 | inactive: 0.034 | inactive: -0.081 | inactive: 0.112 | inactive: 0.118 | inactive: 0.003
DPYSL2 (UniProt Q16555) | inactive: 0.034 | inactive: 0.025 | inactive: -0.09 | inactive: 0.023 | inactive: 0.069 |  | inactive: -0.114 | inactive: 0.042 |  | inactive: 0.015 | inactive: -0.048 | inactive: -0.015 | inactive: 0.082 | inactive: 0.081 | inactive: 0.046 | inactive: -0.063 | inactive: 0 | inactive: 0.079 |  | 
DYNC1LI2 (UniProt O43237) | inactive: 0.025 | inactive: 0.079 | inactive: -0.283 | inactive: 0.393 | inactive: -0.121 | inactive: -0.026 | inactive: -0.041 | inactive: -0.184 | inactive: 0.052 | inactive: -0.01 | inactive: 0.024 | inactive: 0.235 | inactive: 0.054 | inactive: -0.004 | inactive: 0.109 | inactive: 0.015 | inactive: -0.068 | inactive: 0.125 |  | 
DOCK1 (UniProt Q14185) | inactive: 0.09 |  | inactive: 0.034 | inactive: 0.367 |  | inactive: -0.198 | inactive: -0.047 | inactive: -0.028 | inactive: 0.147 | inactive: 0.138 |  |  | inactive: -0.085 |  |  |  | inactive: 0.15 |  | inactive: 0.237 | 
DNLZ (UniProt Q5SXM8) | inactive: -0.024 |  | inactive: 0.108 | inactive: -0.012 |  | inactive: 0.004 | inactive: -0.032 | inactive: -0.065 | inactive: 0.082 | inactive: 0.08 | inactive: -0.063 |  | inactive: -0.081 |  | inactive: 0.071 | inactive: 0.02 | inactive: 0.047 | inactive: 0 | inactive: 0.014 | inactive: -0.007
DUSP9 (UniProt Q99956) | inactive: 0.278 | inactive: -0.02 | inactive: 0.078 |  | inactive: 0.478 | inactive: 0.001 |  |  | inactive: -0.091 |  |  |  | inactive: 0.119 |  | inactive: -0.36 | inactive: 0.024 | inactive: -0.246 | inactive: -0.03 | inactive: -0.007 | 
DOK1 (UniProt Q99704) | inactive: 0.257 | inactive: 0.07 | inactive: 0.171 | inactive: 0.034 | inactive: -0.183 |  | inactive: -0.213 | inactive: -0.055 |  | inactive: -0.142 | inactive: 0.164 |  |  |  | inactive: 0.024 | inactive: 0.064 |  | inactive: -0.017 |  | inactive: 0.089
DUSP12 (UniProt V9GYV5) | inactive: -0.282 | inactive: -0.032 | inactive: 0.105 |  | inactive: -0.014 |  |  |  |  |  |  |  |  |  |  |  |  |  |  | 
EDRF1 (UniProt Q3B7T1) | inactive: 0.024 |  | inactive: 0.055 | inactive: -0.008 |  | inactive: -0.24 | inactive: -0.04 | inactive: -0.275 | inactive: -0.114 |  | inactive: 0.045 | inactive: 0.098 | inactive: 0.134 | inactive: -0.209 |  |  | inactive: -0.157 |  |  | 
DNTTIP2 (UniProt Q5QJE6) | inactive: 0.012 | inactive: -0.028 | inactive: -0.051 | inactive: 0.268 | inactive: 0.129 | inactive: -0.093 | inactive: 0.148 | inactive: -0.104 | inactive: -0.035 | inactive: 0.256 | inactive: -0.074 | inactive: 0.107 | inactive: 0.052 | inactive: -0.05 | inactive: 0.064 | inactive: -0.02 | inactive: 0.148 | inactive: -0.29 |  | 
EDC3 (UniProt Q96F86) | inactive: 0.002 | inactive: -0.237 | active: -0.439 | inactive: -0.014 | inactive: 0.05 | inactive: -0.121 | inactive: -0.022 | inactive: -0.019 | inactive: -0.006 | inactive: -0.035 | inactive: 0 | inactive: -0.023 | inactive: 0.066 | inactive: -0.013 | inactive: -0.142 | inactive: -0.127 | inactive: -0.006 | inactive: -0.151 |  | 
DOCK7 (UniProt Q96N67) | inactive: 0.059 |  | inactive: 0.1 | inactive: -0.059 |  | inactive: -0.091 | inactive: 0.026 | inactive: 0.084 | inactive: -0.023 | inactive: -0.07 | inactive: 0.052 | inactive: -0.037 | inactive: 0.041 | inactive: 0.023 | inactive: 0.043 | inactive: 0.131 | inactive: 0 | inactive: -0.079 | inactive: -0.004 | inactive: -0.024
DYNC1I2 isoform 5 (UniProt Q13409) | inactive: 0.026 | inactive: 0.055 | inactive: -0.035 | inactive: -0.007 | inactive: -0.011 | inactive: 0.028 | inactive: -0.071 | inactive: 0.003 | inactive: -0.008 | inactive: -0.038 | inactive: 0.046 | inactive: 0.027 | inactive: -0.007 | inactive: -0.018 | inactive: 0.015 | inactive: 0.002 | inactive: -0.012 | inactive: 0.011 |  | 
DNAJC7 (UniProt Q99615) | inactive: 0.027 | inactive: -0.014 | inactive: 0.048 | inactive: -0.028 | inactive: -0.057 | inactive: 0.001 | inactive: -0.047 | inactive: 0.068 | inactive: 0.058 | inactive: -0.012 | inactive: 0.037 | inactive: -0.088 | inactive: 0.095 | inactive: 0.031 | inactive: -0.107 | inactive: -0.048 | inactive: -0.136 | inactive: 0.024 |  | 
ECHDC3 (UniProt Q96DC8) | inactive: 0.173 | inactive: 0.065 | inactive: 0.068 |  | inactive: -0.071 | inactive: -0.1 | inactive: -0.053 |  | inactive: 0.086 |  | inactive: 0.159 | inactive: -0.081 |  | inactive: 0.023 | inactive: -0.06 | inactive: 0.197 |  | inactive: -0.197 |  | inactive: -0.06

Reformatted: entries from further up
Target,log2 fold change [1],log2 fold change (crizotinib),log2 fold change [2],log2 fold change [3],log2 fold change (doramapimod),log2 fold change (ispinesib),log2 fold change (bafetinib),log2 fold change [4],log2 fold change [5],log2 fold change (tipifarnib),log2 fold change (mubritinib),log2 fold change (gandotinib),log2 fold change [6],log2 fold change [7],log2 fold change (nilotinib),log2 fold change [8],log2 fold change (dasatinib),log2 fold change [9],log2 fold change (duvelisib),log2 fold change (tozasertib)
DYNC1I2 isoform 2 (UniProt Q13409),inactive: 0.185,inactive: -0.05,inactive: -0.02,active: -0.647,inactive: -0.079,inactive: 0.06,inactive: -0.038,inactive: -0.311,inactive: -0.067,inactive: 0.177,inactive: 0.067,,,,,,,,,
DNAJC1 (UniProt Q96KC8),inactive: -0.021,inactive: -0.148,inactive: 0.009,inactive: 0.023,inactive: 0.002,active: -0.356,inactive: -0.185,inactive: 0.028,inactive: 0.047,inactive: 0.039,inactive: 0.041,inactive: -0.094,inactive: 0.009,inactive: -0.026,inactive: -0.035,inactive: 0.016,inactive: -0.064,inactive: 0.002,,
